Assay results reported in the supplement of paper PMC4604168 (melanoma cell lines).
This is one part of the list. Many values rest on one well or one pass, so single values are uncertain.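 The apoptosis fraction was the count of cleaved-PARP antibody-stained nuclei relative to all DNA-stained nuclei, imaged in 1,536-well plates. Screening doses were set so most cells survived, and baseline and induced cleaved-PARP levels vary greatly across cell lines.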

Columns and labels:
Assay in all cases: cleaved PARP positive nuclei fraction relative to DMSO control; melanoma cells; higher = more apoptosis
Details in all cases: library dose: low library concentration; 72 h
[1] = system: A101D
[2] = system: A2058
[3] = system: C32
[4] = system: CBRC008 (line from a melanoma biopsy)
[5] = system: CBRC014 (line from a melanoma biopsy)
[6] = system: CBRC016 (line from a melanoma biopsy)
[7] = system: CBRC017 (line from a melanoma biopsy)
[8] = system: COLO792
[9] = system: COLO800
[10] = system: COLO829
[11] = system: G361
[12] = system: IPC-298
[13] = system: IST-MEL1
[14] = system: LOXIMVI
[15] = system: A375
[16] = system: CBRC034 (line from a melanoma biopsy)
[17] = system: MEL-HO

Structure (SMILES)	cleaved PARP positive nuclei fraction [1] [%]	cleaved PARP positive nuclei fraction [2] [%]	cleaved PARP positive nuclei fraction [3] [%]	cleaved PARP positive nuclei fraction [4] [%]	cleaved PARP positive nuclei fraction [5] [%]	cleaved PARP positive nuclei fraction [6] [%]	cleaved PARP positive nuclei fraction [7] [%]	cleaved PARP positive nuclei fraction [8] [%]	cleaved PARP positive nuclei fraction [9] [%]	cleaved PARP positive nuclei fraction [10] [%]	cleaved PARP positive nuclei fraction [11] [%]	cleaved PARP positive nuclei fraction [12] [%]	cleaved PARP positive nuclei fraction [13] [%]	cleaved PARP positive nuclei fraction [14] [%]	cleaved PARP positive nuclei fraction [15] [%]	cleaved PARP positive nuclei fraction [16] [%]	cleaved PARP positive nuclei fraction [17] [%]
O=C(O)c1ccc2c(c1)nc(Nc1cccc(Cl)c1)c1ccncc12 + Cc1cc([N+](=O)[O-])ccc1NS(=O)(=O)c1cc(Cl)ccc1Cl [FH535] (first compound 0.4 µM, partner dose 1 µM)	16.5	228	94.3	916	165	902	315	93.2	95	95	167	97.9	120	151			
Cc1cc(Nc2cc(N3CCN(C)CC3)nc(/C=C/c3ccccc3)n2)n[nH]1 + C=C(c1ccc(C(=O)O)cc1)c1cc2c(cc1C)C(C)(C)CCC2(C)C [Bexarotene] (first compound 0.04 µM, partner dose 2 µM)	71.8	97	40.2	112	103	148	120	113	117	100	136	187	172	31	74.6	27.4	75.1
Cc1cc(Nc2cc(N3CCN(C)CC3)nc(/C=C/c3ccccc3)n2)n[nH]1 + COc1cc2ncnc(Nc3ccc(Oc4ccccc4)cc3)c2cc1OC [SrcI1] (first compound 0.04 µM, partner dose 2 µM)	43.6	288	85.6	142	86.1	34.8	80.9	74.9	166	92	44.3	90.2	76	130			
C=C(c1ccc(C(=O)O)cc1)c1cc2c(cc1C)C(C)(C)CCC2(C)C [Bexarotene] + Nc1ncn([C@H]2C[C@H](O)[C@@H](CO)O2)c(=O)n1 [decitabine] (first compound 2 µM, partner dose 0.1 µM)	97.9	206	70.6	136	124	85.4	142	161	66.8	82.3	152	114	76.9	66.8	228	66.6	329
Nc1ccn([C@@H]2O[C@H](CO)[C@@H](O)C2(F)F)c(=O)n1 [gemcitabine] + Cn1cc(/C=C2\C(=O)Nc3cccnc32)c2ccccc21 [GW441756] (first compound 0.0004 µM, partner dose 0.4 µM)	36.2	73.2	151	97.5	135	81	164	129	187	43	132	101	70	116			
CS(=O)(=O)CCNCc1ccc(-c2ccc3ncnc(Nc4ccc(OCc5cccc(F)c5)c(Cl)c4)c3c2)o1 [lapatinib] + C[C@]1(c2nc3c(C(N)=O)cccc3[nH]2)CCCN1 [Veliparib] (first compound 0.8 µM, partner dose 1.4 µM)	50.1	143	217	40	100	121	149	126	165	133	145	187	60	111	313	73.1	148
CCCS(=O)(=O)Nc1ccc(F)c(C(=O)c2c[nH]c3ncc(Cl)cc23)c1F + OCc1c[nH]c2ccccc12 [Indole-3-carbinol] (first compound 0.08 µM, partner dose 0.8 µM)	43.2	123	98.8	30.4	123	85.5	116	84.1	81.2	108	121	167	133	134	303	46	174
CN1CCN(c2ccc3nc(-c4c(N)c5c(F)cccc5[nH]c4=O)[nH]c3c2)CC1 [Dovitinib] + Nc1ccn([C@@H]2O[C@H](CO)[C@@H](O)C2(F)F)c(=O)n1 [gemcitabine] (first compound 0.1 µM, partner dose 0.0004 µM)	47.8	128	87	45.8	107	120	133	95.2	114	174	72.4	93.6	243	90.5	139	52.4	120
Nc1nc(F)nc2c1ncn2[C@@H]1O[C@H](CO)[C@@H](O)[C@@H]1O [fludarabine] + Cn1nnc2c(C(N)=O)ncn2c1=O [temozolomide] (first compound 0.2 µM, partner dose 2 µM)	91.8	120	69.8	52.6	125	241	93.3	52.6	57.3	155	258	98.3	37.7	58.8	9070	127	119
CNC(=O)c1cc(Oc2ccc(NC(=O)Nc3ccc(Cl)c(C(F)(F)F)c3)cc2)ccn1 [sorafenib] + Nc1ccn([C@@H]2O[C@H](CO)[C@@H](O)C2(F)F)c(=O)n1 [gemcitabine] (first compound 0.4 µM, partner dose 0.0004 µM)	94.9	154	80.3	41.1	121	140	158	60.1	140	59.9	98	95.3	84.6	152	119	102	71.5
O=C(O)[C@@H]1[O][Sb](=[O])([O][Sb]2(=[O])[O][C@H]([C@H](O)CO)[C@H](O)[C@H](C(=O)O)[O]2)[O][C@H]([C@H](O)CO)[C@@H]1O (some centres undefined) [stibogluconate] + N#Cc1c(O)c2c(-c3ccc(-c4ccccc4O)cc3)csc2[nH]c1=O [A769662] (first compound 2 µM, partner dose 2 µM)	27.1	72.7	87	67.4	94.3	74.2	82	81	134	109	148	46.1	133	80.5			
O=C(O)[C@@H]1[O][Sb](=[O])([O][Sb]2(=[O])[O][C@H]([C@H](O)CO)[C@H](O)[C@H](C(=O)O)[O]2)[O][C@H]([C@H](O)CO)[C@@H]1O (some centres undefined) [stibogluconate] + COc1cc2ncnc(Nc3ccc(Oc4ccccc4)cc3)c2cc1OC [SrcI1] (first compound 2 µM, partner dose 2 µM)	39.5	92.8	81.5	98.3	97.9	33.1	108	115	74	182	108	49.5	169	100			
C[C@@H](Oc1cc(-c2cnn(C3CCNCC3)c2)cnc1N)c1c(Cl)ccc(F)c1Cl [Crizotinib] + C=CCNC1=C2C[C@@H](C)C[C@H](OC)[C@H](O)[C@@H](C)/C=C(\C)[C@H](OC(N)=O)[C@@H](OC)/C=C\C=C(/C)C(=O)NC(=CC1=O)C2=O [Tanespimycin] (first compound 0.2 µM, partner dose 0.002 µM)	188	51.2	93.7	118	88.9	150	107	45.6	43.4	44.9	58.5	279	62.8	118	22.6	99.9	70.3
CO[C@H]1C[C@@H]2CC[C@@H](C)[C@@](O)(O2)C(=O)C(=O)N2CCCC[C@H]2C(=O)O[C@H]([C@H](C)C[C@@H]2CC[C@@H](OCCO)[C@H](OC)C2)CC(=O)[C@H](C)/C=C(\C)[C@@H](O)[C@@H](OC)C(=O)[C@H](C)C[C@H](C)/C=C/C=C/C=C/1C [everolimus] + CC(C)CCN1c2nc(Nc3cc(F)c(O)c(F)c3)ncc2N(C)C(=O)C1C [BID1870] (first compound 0.02 µM, partner dose 0.2 µM)	72.8	230	298	242	106	66.9	128	252	110	97.7	294	65.2	169	132			
Nc1nc(F)nc2c1ncn2[C@@H]1O[C@H](CO)[C@@H](O)[C@@H]1O [fludarabine] + Oc1nc(-c2ccc(C(F)(F)F)cc2)nc2c1CSCC2 [XAV939] (first compound 0.2 µM, partner dose 2 µM)	24.1	296	158	104	93.1	103	53.5	101	143	91.3	141	56.3	79.1	106			
CC(C)C[C@H](NC(=O)[C@H](Cc1ccccc1)NC(=O)c1cnccn1)B(O)O [Bortezomib] + CCN(CC)CCCCNc1ncc2cc(-c3cc(OC)cc(OC)c3)c(NC(=O)NC(C)(C)C)nc2n1 [PD173074] (first compound 0.001 µM, partner dose 0.1 µM)	42.5	115	76.6	873	164	160	178	76.8	133	272	1230	59.5	123	125			
Cn1c(=O)n(-c2ccc(C(C)(C)C#N)cc2)c2c3cc(-c4cnc5ccccc5c4)ccc3ncc21 + O=C(O)[C@@H]1[O][Sb](=[O])([O][Sb]2(=[O])[O][C@H]([C@H](O)CO)[C@H](O)[C@H](C(=O)O)[O]2)[O][C@H]([C@H](O)CO)[C@@H]1O [stibogluconate] (first compound 0.004 µM, partner dose 2 µM)	208	31.8	85.8	33.3	99.9	101	131	73.3	124	176	111	288	127	166	116	39.7	123
O=C(O)c1ccc2c(c1)nc(Nc1cccc(Cl)c1)c1ccncc12 + Cn1cc(/C=C2\C(=O)Nc3cccnc32)c2ccccc21 [GW441756] (first compound 0.4 µM, partner dose 0.4 µM)	23.6	98.5	253	64.8	74.7	92.8	96.4	31.4	95.2	101	133	34.4	30.1	63.8			

Copied from the results shown for reference:
Structure (SMILES)	cleaved PARP positive nuclei fraction [1] [%]	cleaved PARP positive nuclei fraction [2] [%]	cleaved PARP positive nuclei fraction [3] [%]	cleaved PARP positive nuclei fraction [4] [%]	cleaved PARP positive nuclei fraction [5] [%]	cleaved PARP positive nuclei fraction [6] [%]	cleaved PARP positive nuclei fraction [7] [%]	cleaved PARP positive nuclei fraction [8] [%]	cleaved PARP positive nuclei fraction [9] [%]	cleaved PARP positive nuclei fraction [10] [%]	cleaved PARP positive nuclei fraction [11] [%]	cleaved PARP positive nuclei fraction [12] [%]	cleaved PARP positive nuclei fraction [13] [%]	cleaved PARP positive nuclei fraction [14] [%]	cleaved PARP positive nuclei fraction [15] [%]	cleaved PARP positive nuclei fraction [16] [%]	cleaved PARP positive nuclei fraction [17] [%]
CCCS(=O)(=O)Nc1ccc(F)c(C(=O)c2c[nH]c3ncc(Cl)cc23)c1F + OCc1c[nH]c2ccccc12 [Indole-3-carbinol] (first compound 0.08 µM, partner dose 0.8 µM)	43.2	123	98.8	30.4	123	85.5	116	84.1	81.2	108	121	167	133	134	303	46	174
CN1CCN(c2ccc3nc(-c4c(N)c5c(F)cccc5[nH]c4=O)[nH]c3c2)CC1 [Dovitinib] + Nc1ccn([C@@H]2O[C@H](CO)[C@@H](O)C2(F)F)c(=O)n1 [gemcitabine] (first compound 0.1 µM, partner dose 0.0004 µM)	47.8	128	87	45.8	107	120	133	95.2	114	174	72.4	93.6	243	90.5	139	52.4	120
